In article PMC7090148 (2020) one finds binding data, which are given here for one molecule.

In this test the target is T1, NTAP-tagged TRAPPC12 (mouse) (UniProt Q8K2L8).
T1 sequence: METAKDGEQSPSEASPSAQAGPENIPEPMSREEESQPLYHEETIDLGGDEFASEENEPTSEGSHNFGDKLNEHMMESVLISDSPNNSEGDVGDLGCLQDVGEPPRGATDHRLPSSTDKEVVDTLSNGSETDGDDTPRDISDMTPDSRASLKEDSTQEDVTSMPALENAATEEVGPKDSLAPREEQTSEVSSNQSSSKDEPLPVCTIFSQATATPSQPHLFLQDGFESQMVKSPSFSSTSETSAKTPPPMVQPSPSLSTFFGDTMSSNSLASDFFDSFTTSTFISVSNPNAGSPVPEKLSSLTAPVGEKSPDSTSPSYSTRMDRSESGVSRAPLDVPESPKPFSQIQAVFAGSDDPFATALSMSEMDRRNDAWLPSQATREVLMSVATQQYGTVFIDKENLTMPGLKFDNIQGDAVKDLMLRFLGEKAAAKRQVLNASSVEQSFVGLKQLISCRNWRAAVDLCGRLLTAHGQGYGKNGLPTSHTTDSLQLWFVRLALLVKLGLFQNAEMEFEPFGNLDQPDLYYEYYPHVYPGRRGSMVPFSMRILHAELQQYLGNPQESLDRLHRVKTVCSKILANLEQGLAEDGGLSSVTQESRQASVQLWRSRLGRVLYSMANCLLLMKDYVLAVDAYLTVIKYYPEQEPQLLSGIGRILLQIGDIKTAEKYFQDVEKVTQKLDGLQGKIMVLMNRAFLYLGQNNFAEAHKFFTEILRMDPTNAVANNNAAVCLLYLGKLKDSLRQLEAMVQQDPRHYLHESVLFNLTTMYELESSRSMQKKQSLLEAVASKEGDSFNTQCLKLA
Description: affinity purification with mass spectrometry; tandem affinity purification (TAP) of NTAP-TRAPPC12; mass spectrometry.

These are yes or no findings as the source states them, for the method shown. Binding seen in cells or lysates may run through a third protein. These calls come from enrichment with a bait or labelling near it, and not all partners need be listed. Where a sequence is shown, tags or fusion partners need not be part of it.

B1: Oral-facial-digital syndrome 1 protein found in the tandem affinity purification of NTAP-TRAPPC12 (protein, UniProt O75665 1-1012)
chain: MMAQSNMFTVADVLSQDELRKKLYQTFKDRGILDTLKTQLRNQLIHELMHPVLSGELQPRSISVEGSSLLIGASNSLVADHLQRCGYEYSLSVFFPESGLAKEKVFTMQDLLQLIKINPTSSLYKSLVSGSDKENQKGFLMHFLKELAEYHQAKESCNMETQTSSTFNRDSLAEKLQLIDDQFADAYPQRIKFESLEIKLNEYKREIEEQLRAEMCQKLKFFKDTEIAKIKMEAKKKYEKELTMFQNDFEKACQAKSEALVLREKSTLERIHKHQEIETKEIYAQRQLLLKDMDLLRGREAELKQRVEAFELNQKLQEEKHKSITEALRRQEQNIKSFEETYDRKLKNELLKYQLELKDDYIIRTNRLIEDERKNKEKAVHLQEELIAINSKKEELNQSVNRVKELELELESVKAQSLAITKQNHMLNEKVKEMSDYSLLKEEKLELLAQNKLLKQQLEESRNENLRLLNRLAQPAPELAVFQKELRKAEKAIVVEHEEFESCRQALHKQLQDEIEHSAQLKAQILGYKASVKSLTTQVADLKLQLKQTQTALENEVYCNPKQSVIDRSVNGLINGNVVPCNGEISGDFLNNPFKQENVLARMVASRITNYPTAWVEGSSPDSDLEFVANTKARVKELQQEAERLEKAFRSYHRRVIKNSAKSPLAAKSPPSLHLLEAFKNITSSSPERHIFGEDRVVSEQPQVGTLEERNDVVEALTGSAASRLRGGTSSRRLSSTPLPKAKRSLESEMYLEGLGRSHIASPSPCPDRMPLPSPTESRHSLSIPPVSSPPEQKVGLYRRQTELQDKSEFSDVDKLAFKDNEEFESSFESAGNMPRQLEMGGLSPAGDMSHVDAAAAAVPLSYQHPSVDQKQIEEQKEEEKIREQQVKERRQREERRQSNLQEVLERERRELEKLYQERKMIEESLKIKIKKELEMENELEMSNQEIKDKSAHSENPLEKYMKIIQQEQDQESADKSSKKMVQEGSLVDTLQSSDKVESLTGFSHEELDDSW
Consider B1, for which the binding entry is given as “binds”.
